Counter-ions that a name gives are not always drawn. Some of the results follow. Hit calls seldom repeat between salt and free forms of one compound.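 In K562 cells expressing nanoluciferase-fused kinases, luminescence was recorded at 4 h intervals between 2 and 18 h, normalized as percent of control with DMSO at 100% and a positive control at 0%. A significant (2 sigma) signal drop marks a time point as decreased. The authors' rule for a hit is not shown and takes in more than the number of time points.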
target: ABL1 (UniProt P00519); experiment: number of time points (of 5) at which kinase-Nluc abundance scored as decreased, DMSO-normalised (count); higher = more persistent destabilization; conditions: K562; 2-18 h

Amino acid sequences for entries named in this document (tags omitted). A change or cut given only in a name is not applied to a line headed by its entry.
UniProt P00519, whole entry: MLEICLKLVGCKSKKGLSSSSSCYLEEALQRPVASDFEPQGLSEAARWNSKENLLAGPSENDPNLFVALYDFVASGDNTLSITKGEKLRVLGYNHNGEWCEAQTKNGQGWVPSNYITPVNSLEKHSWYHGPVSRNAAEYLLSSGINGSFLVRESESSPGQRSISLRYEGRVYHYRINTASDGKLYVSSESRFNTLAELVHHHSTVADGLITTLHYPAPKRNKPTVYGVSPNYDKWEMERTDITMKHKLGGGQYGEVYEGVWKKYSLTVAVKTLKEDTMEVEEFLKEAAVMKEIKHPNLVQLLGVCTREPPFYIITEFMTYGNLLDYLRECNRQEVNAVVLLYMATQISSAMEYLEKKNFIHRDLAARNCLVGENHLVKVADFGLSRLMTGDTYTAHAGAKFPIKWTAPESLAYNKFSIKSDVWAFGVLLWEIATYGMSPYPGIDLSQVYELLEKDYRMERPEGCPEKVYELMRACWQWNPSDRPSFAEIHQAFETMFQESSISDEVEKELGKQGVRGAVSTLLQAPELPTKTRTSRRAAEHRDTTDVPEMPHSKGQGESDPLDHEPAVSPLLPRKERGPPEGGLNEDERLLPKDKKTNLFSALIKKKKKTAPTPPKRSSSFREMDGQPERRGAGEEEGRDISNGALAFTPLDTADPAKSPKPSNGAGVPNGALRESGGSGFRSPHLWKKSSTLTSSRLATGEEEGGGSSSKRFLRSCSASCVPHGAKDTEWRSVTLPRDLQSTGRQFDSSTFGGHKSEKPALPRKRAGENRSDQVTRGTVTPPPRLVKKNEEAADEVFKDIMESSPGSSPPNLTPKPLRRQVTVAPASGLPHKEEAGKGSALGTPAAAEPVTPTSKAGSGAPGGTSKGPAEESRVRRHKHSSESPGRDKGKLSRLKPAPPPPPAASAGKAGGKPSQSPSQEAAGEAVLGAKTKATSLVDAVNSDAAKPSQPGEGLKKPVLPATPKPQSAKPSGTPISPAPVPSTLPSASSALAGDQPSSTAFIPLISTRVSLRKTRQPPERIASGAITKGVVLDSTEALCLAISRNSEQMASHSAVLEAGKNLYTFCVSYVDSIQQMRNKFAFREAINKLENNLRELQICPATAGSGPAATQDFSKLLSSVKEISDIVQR
UniProt P31749: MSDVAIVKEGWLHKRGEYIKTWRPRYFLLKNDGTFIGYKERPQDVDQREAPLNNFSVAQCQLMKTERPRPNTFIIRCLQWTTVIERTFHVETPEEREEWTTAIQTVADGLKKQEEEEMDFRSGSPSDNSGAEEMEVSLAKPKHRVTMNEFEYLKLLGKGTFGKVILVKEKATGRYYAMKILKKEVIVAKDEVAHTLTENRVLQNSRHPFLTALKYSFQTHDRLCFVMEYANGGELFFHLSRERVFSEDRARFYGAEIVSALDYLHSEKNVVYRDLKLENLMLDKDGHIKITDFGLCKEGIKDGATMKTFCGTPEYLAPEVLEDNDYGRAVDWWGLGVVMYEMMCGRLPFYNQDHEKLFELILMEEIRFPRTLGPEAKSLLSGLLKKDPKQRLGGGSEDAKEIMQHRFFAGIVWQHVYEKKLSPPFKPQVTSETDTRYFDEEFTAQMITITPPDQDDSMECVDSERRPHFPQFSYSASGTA

| SMILES | number of time points |
| --- | --- |
| CC/C=C\C/C=C\C/C=C\CCCCCCCC(=O)O [α-Linolenic acid] (10 µM) | 0 |
| Nc1ncnc2c1c(-c1ccc(Oc3ccccc3)cc1)nn2C1CCNCC1 [N-piperidine Ibrutinib (hydrochloride)] (10 µM) | 0 |
| CC(C)NC(=O)N1CC[C@H](NC2=Nc3cc(F)ccc3N(CC(F)F)c3ccc(Cl)cc32)C1 (10 µM) | 0 |
| O=C(Nc1cc(Oc2cc(F)c(NC(=O)C3(C(=O)Nc4ccc(F)cc4)CC3)cc2F)ccn1)C1CC1 [Altiratinib] (10 µM) | 0 |
| COCCOc1ccc(-c2cn(-c3ccccc3)c3nc[nH]c(=O)c23)cc1 (10 µM) | 0 |
| Cc1ccc2nc(NC(=O)CSc3nc4c(c(=O)n3-c3ccccc3)SCC4)sc2c1 (2 µM) | 0 |
| C[C@]1(O)CCC[C@@H]1n1c(=O)c(C(F)F)cc2cnc(NC3CCN(S(C)(=O)=O)CC3)nc21 (10 µM) | 0 |
| NC1(Cc2ccc(Cl)cc2)CCN(c2ncnc3[nH]ccc23)CC1 (10 µM) | 2 |
| O=C(O)c1cc(O)ccc1O [2,5-Dihydroxybenzoic acid] (10 µM) | 0 |
| C=C(CCC=C(C)C)[C@H]1CC[C@]2(C)[C@@H]1[C@H](O)C[C@@H]1[C@@]3(C)CC[C@H](O[C@@H]4O[C@H](CO)[C@@H](O)[C@H](O)[C@H]4O[C@@H]4O[C@H](CO)[C@@H](O)[C@H](O)[C@H]4O)C(C)(C)[C@@H]3CC[C@]12C [Ginsenoside Rk1] (10 µM) | 0 |
| CC(C)=CC[C@H](O)C1=CC(=O)c2c(O)ccc(O)c2C1=O [(-)-Alkannin] (2.5 µM) | 0 |
| N#Cc1c(-c2ccccc2)cc(-c2cc(Br)ccc2O)[nH]c1=O (10 µM) | 0 |
| CCn1c(-c2nonc2N)nc2cnc(Oc3cccc(NC(=O)c4ccc(OCCN5CCOCC5)cc4)c3)cc21 (10 µM) | 0 |
| CO[C@H]1C[C@@H]2CC[C@@H](C)[C@@](O)(O2)C(=O)C(=O)N2CCCC[C@H]2C(=O)O[C@H]([C@H](C)C[C@@H]2CC[C@@H](O)[C@H](OC)C2)CC(=O)[C@H](C)/C=C(\C)[C@@H](O)[C@@H](OC)C(=O)[C@H](C)C[C@H](C)/C=C/C=C/C=C/1C [Rapamycin] (10 µM) | 0 |
| CC(C)=CCC[C@](C)(O[C@@H]1O[C@H](CO)[C@@H](O)[C@H](O)[C@H]1O)[C@H]1CC[C@]2(C)[C@@H]1[C@H](O)C[C@@H]1[C@@]3(C)CC[C@H](O)C(C)(C)[C@@H]3[C@@H](O[C@@H]3O[C@H](CO)[C@@H](O)[C@H](O)[C@H]3O[C@@H]3O[C@@H](C)[C@H](O)[C@@H](O)[C@H]3O)C[C@]12C [Ginsenoside Re] (10 µM) | 0 |
| Cn1c(=O)c(F)c(Nc2ccc(I)cc2F)c2c(=O)n(C[C@@H](O)CO)cnc21 (10 µM) | 1 |

target: AKT1 (UniProt P31749); experiment: as above; conditions: K562; 2-18 h

| SMILES | number of time points |
| --- | --- |
| NCc1ccc(Nc2ncc(F)c(Nc3ccccc3)n2)cc1 (10 µM) | 0 |
| C=C(C)C(=O)Nc1cccc(-c2ncnc3[nH]cc(C(=O)OCC)c23)c1 (10 µM) | 0 |
| CCOc1cc(C(=O)N2CCC(N3CCN(C)CC3)CC2)ccc1Nc1ncc2c(n1)N(C1CCCC1)c1ccccc1C(=O)N2C (10 µM) | 0 |
| CCOc1ccc(C(=O)Nc2ncc([N+](=O)[O-])s2)cc1 (10 µM) | 0 |
| CNC(=O)Nc1ccc(-c2cc(-c3ccnc(Nc4ccc(C)c(S(=O)(=O)N(C)C)c4)n3)ccn2)cc1 [hSMG-1 inhibitor 11e] (2.5 µM) | 0 |
| CNC(=O)c1ccc(-c2cnc3cnc(C(=O)N(C)c4ccc(Cl)cc4)cn23)cc1 (2.5 µM) | 0 |
| COc1cccc(-n2c(=O)[nH]c3cc(Cl)n(-c4ccc(-c5cccc(OC)c5O)cc4)c3c2=O)c1 (2.5 µM) | 0 |
| O=C(Nc1cccnc1)c1cc(C(=O)c2c(F)cccc2Br)c[nH]1 (10 µM) | 0 |
| CN(CC(=O)N(Cc1ccc(C2CCCCC2)cc1)c1ccc(C(=O)O)cc1)S(=O)(=O)c1c(F)c(F)c(F)c(F)c1F (2.5 µM) | 0 |
| COc1c(NC(=O)C(=O)c2ccc(OCCN3CCOCC3)c3ccccc23)cc(C(C)(C)C)cc1NS(C)(=O)=O (2.5 µM) | 0 |
| CC(C)CC1(O)CCN(C(=O)c2ccc(NS(=O)(=O)c3cccc4nccnc34)cc2)CC1 (10 µM) | 0 |
| O=C(/C=C/c1ccc(O)c(O)c1)c1ccc(O[C@@H]2O[C@H](CO)[C@@H](O)[C@H](O)[C@H]2O)c(O)c1O [Marein] (10 µM) | 0 |
| Cc1cc2cc(Nc3ccnc(Nc4ccc5[nH]c(C)cc5c4)n3)ccc2[nH]1 (2.5 µM) | 0 |
| Cc1cc(Nc2cc(Cl)nc(Oc3ccc([N+](=O)[O-])cc3)n2)n[nH]1 [Autophinib] (2.5 µM) | 0 |
| Fc1ccc(-c2nc(-c3ccccc3F)[nH]c2-c2ccncc2)cc1 (2.5 µM) | 0 |
| OC(COc1ccc(C(F)(F)F)cc1)CN(Cc1ccccc1)Cc1ccccc1 (stereo not given) (2.5 µM) | 0 |
| COc1ccc2[nH]cc(/C=C3\C(=O)Nc4ccc(NC(=O)CCN5CCCCC5)cc43)c2c1 (2.5 µM) | 0 |
| CS(=O)(=O)c1ccc(-c2noc(C(F)(F)F)c2-c2ccccc2)cc1 (10 µM) | 0 |
| COCCO[C@@H]1[C@H](O)[C@@H](CO)O[C@H]1n1cnc2c(=O)[nH]c(N)nc21 [2′-O-(2-Methoxyethyl)guanosine] (10 µM) | 0 |
| Cn1cnc(-c2cc3nccc(Oc4ccc(NC(=S)NC(=O)Cc5ccccc5)cc4F)c3s2)c1 [MGCD-265 analog] (10 µM) | 0 |

| SMILES | number of time points |
| --- | --- |
| Cc1noc(C)c1-c1ccc(-c2cc(C(N)=O)c(NC(N)=O)s2)c(O[C@H]2CCNC2)c1 (10 µM) | 0 |
| Cc1c(CN2CCN(S(C)(=O)=O)CC2)sc2c(N3CCOCC3)nc(-c3cnc(N)nc3)nc12 (2.5 µM) | 0 |
| CC(C)CN(CC(=O)N1CCN(CC(OCc2ccc3ccccc3c2)c2ccc(Cl)cc2Cl)CC1)CC(C)C (stereo not given) [LYN-1604 (dihydrochloride)] (2.5 µM) | 0 |
| CC/C=C\C/C=C\C/C=C\CCCCCCCC(=O)O [α-Linolenic acid] (10 µM) | 0 |
| Nc1ncnc2c1c(-c1ccc(Oc3ccccc3)cc1)nn2C1CCNCC1 [N-piperidine Ibrutinib (hydrochloride)] (10 µM) | 0 |
| CC(C)NC(=O)N1CC[C@H](NC2=Nc3cc(F)ccc3N(CC(F)F)c3ccc(Cl)cc32)C1 (10 µM) | 0 |
| O=C(Nc1cc(Oc2cc(F)c(NC(=O)C3(C(=O)Nc4ccc(F)cc4)CC3)cc2F)ccn1)C1CC1 [Altiratinib] (10 µM) | 0 |
| COCCOc1ccc(-c2cn(-c3ccccc3)c3nc[nH]c(=O)c23)cc1 (10 µM) | 0 |
| Cc1ccc2nc(NC(=O)CSc3nc4c(c(=O)n3-c3ccccc3)SCC4)sc2c1 (2 µM) | 0 |
| C[C@]1(O)CCC[C@@H]1n1c(=O)c(C(F)F)cc2cnc(NC3CCN(S(C)(=O)=O)CC3)nc21 (10 µM) | 0 |
| NC1(Cc2ccc(Cl)cc2)CCN(c2ncnc3[nH]ccc23)CC1 (10 µM) | 0 |
| O=C(O)c1cc(O)ccc1O [2,5-Dihydroxybenzoic acid] (10 µM) | 0 |
| C=C(CCC=C(C)C)[C@H]1CC[C@]2(C)[C@@H]1[C@H](O)C[C@@H]1[C@@]3(C)CC[C@H](O[C@@H]4O[C@H](CO)[C@@H](O)[C@H](O)[C@H]4O[C@@H]4O[C@H](CO)[C@@H](O)[C@H](O)[C@H]4O)C(C)(C)[C@@H]3CC[C@]12C [Ginsenoside Rk1] (10 µM) | 0 |
| CC(C)=CC[C@H](O)C1=CC(=O)c2c(O)ccc(O)c2C1=O [(-)-Alkannin] (2.5 µM) | 0 |
| N#Cc1c(-c2ccccc2)cc(-c2cc(Br)ccc2O)[nH]c1=O (10 µM) | 0 |
| CCn1c(-c2nonc2N)nc2cnc(Oc3cccc(NC(=O)c4ccc(OCCN5CCOCC5)cc4)c3)cc21 (10 µM) | 0 |
| CO[C@H]1C[C@@H]2CC[C@@H](C)[C@@](O)(O2)C(=O)C(=O)N2CCCC[C@H]2C(=O)O[C@H]([C@H](C)C[C@@H]2CC[C@@H](O)[C@H](OC)C2)CC(=O)[C@H](C)/C=C(\C)[C@@H](O)[C@@H](OC)C(=O)[C@H](C)C[C@H](C)/C=C/C=C/C=C/1C [Rapamycin] (10 µM) | 0 |
| CC(C)=CCC[C@](C)(O[C@@H]1O[C@H](CO)[C@@H](O)[C@H](O)[C@H]1O)[C@H]1CC[C@]2(C)[C@@H]1[C@H](O)C[C@@H]1[C@@]3(C)CC[C@H](O)C(C)(C)[C@@H]3[C@@H](O[C@@H]3O[C@H](CO)[C@@H](O)[C@H](O)[C@H]3O[C@@H]3O[C@@H](C)[C@H](O)[C@@H](O)[C@H]3O)C[C@]12C [Ginsenoside Re] (10 µM) | 0 |
| Cn1c(=O)c(F)c(Nc2ccc(I)cc2F)c2c(=O)n(C[C@@H](O)CO)cnc21 (10 µM) | 0 |
